System: α1-adrenoceptor (rat thoracic aortae)
Test: Schild analysis of α1-adrenoceptor antagonism: norepinephrine- and phenylephrine-induced contraction of rat thoracic aortae
Conditions: mean with 95% confidence limits

SMILES | slope (agonist phenylephrine) | slope (agonist norepinephrine)
Cc1ccc(N(CC2=NCCN2)c2cccc(O)c2)cc1 [phentolamine, reference compound] | 0.72 (0.71-1.20) | –
COC(=O)[C@@H]1[C@H]2C[C@H]3c4[nH]c5ccccc5c4CCN3C[C@@H]2CC[C@@H]1O [yohimbine, reference compound] | 0.84 (0.65-1.03) | –
COc1cc2c(cc1OC)-c1c3c(cc4c1[C@H](C2)N(C)CC4)OCO3 [dicentrine] | 0.94 (0.95-1.32) | 0.94 (0.85-1.2)
COc1cc2nc(N3CCN(C(=O)c4ccco4)CC3)nc(N)c2cc1OC [prazosin, reference compound] | 0.95 (0.94-1.24) | –
